In article PMC8867190:
Construct, isoform or probe ends are uncertain for at least one entry. The comparison behind a weaker result is the experiment's own reference, which may not be listed here.

Assays:
Experiment in all cases: electrochemical strand displacement (SWV)
[1] = tested on: Follicle-stimulating hormone (FSH); conditions: 1 uM FSH, current for LH about 1.5-fold larger than for FSH; 10 mM phosphate buffer, 1 M NaCl, pH 7.4, room temperature; 30 nM aptamer/signal duplex (prepared in 20 mM Tris, 50 mM MgCl2, pH 8.0, diluted 60 uL into 1940 uL PBS); commercial protein; folded or branched DNA
[2] = tested on: Serum albumin (SAB); conditions: 1 uM, apparent decrease in SWV current response; 10 mM phosphate buffer, 1 M NaCl, pH 7.4, room temperature; 30 nM aptamer/signal duplex (prepared in 20 mM Tris, 50 mM MgCl2, pH 8.0, diluted 60 uL into 1940 uL PBS); commercial protein; folded or branched DNA
[3] = tested on: Thyroid stimulating hormone (TSH); conditions: 1 uM, apparent decrease in SWV current response; 10 mM phosphate buffer, 1 M NaCl, pH 7.4, room temperature; 30 nM aptamer/signal duplex (prepared in 20 mM Tris, 50 mM MgCl2, pH 8.0, diluted 60 uL into 1940 uL PBS); commercial protein; folded or branched DNA

Measured: binding result

TATGGTATGCTGTGTGGTATGGGGTGGCGTGCTCT [LH aptamer]
binds more weakly: all assays above
